The IC50 is the midpoint of a concentration-inhibition curve. Read a high IC50 as a need for much substance.

Chains of the proteins cited; added tags and fusions are not shown. Residues count along the entry.
UniProt P08246, 30-267 limits assumed: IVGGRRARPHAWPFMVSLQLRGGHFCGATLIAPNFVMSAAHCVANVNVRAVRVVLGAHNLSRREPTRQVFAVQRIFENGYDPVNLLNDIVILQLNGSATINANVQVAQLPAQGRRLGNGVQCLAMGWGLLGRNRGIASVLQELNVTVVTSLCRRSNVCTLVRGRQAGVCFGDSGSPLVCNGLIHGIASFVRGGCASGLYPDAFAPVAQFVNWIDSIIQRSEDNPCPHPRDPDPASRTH

The match of structure and compound is tentative.

The experiment deals with Human neutrophil elastase (Homo sapiens, UniProt P08246). The experiment in a line: Human Neutrophil Elastase Assay. In kind it is biochemical. The settings on record: substrate MeOSuc-Ala-Ala-Pro-Val-AMC 250 μM, 15 min preincubation, 60 min incubation at room temperature, pH 7.5.

In the case of `Cc1c(-c2cccc(C(F)(F)F)c2)c(=O)c(C(=O)NC(C)(C)C#N)cn1C(C)c1ccc(C#N)cn1` (centres unmarked), the IC50 was determined as 139 nM. The result for `Cc1c(-c2cccc(C(F)(F)F)c2)c(=O)c(C(=O)NC2COC2)cn1C(C)c1ccc(C#N)cn1` (centres unmarked) reads 26.4 nM; that for `Cc1c(-c2cccc(C(F)(F)F)c2)c(=O)c(C(=O)NCc2cnn(C)c2)cn1C(C)c1ccc(C#N)cn1` (centres unmarked), 13.1 nM. Take `Cc1nc(CNC(=O)c2cn(C(C)c3ccc(C#N)cn3)c(C)c(-c3cccc(C(F)(F)F)c3)c2=O)no1` (centres unmarked): the IC50 worked out at 13.4 nM. The result for `Cc1noc(CNC(=O)c2cn(C(C)c3ccc(C#N)cc3)c(C)c(-c3ccnc(C(F)(F)F)c3)c2=O)n1` (single isomer, unassigned) [Example 9.5] reads 5.7 nM.
